Source: the supplement of paper PMC7666118
The list shows a part of the results.

Chains of the proteins cited; added tags and fusions are not shown. Lines headed by an entry give the natural chain unless they say otherwise; changes in a name come on top.
UniProt Q92685: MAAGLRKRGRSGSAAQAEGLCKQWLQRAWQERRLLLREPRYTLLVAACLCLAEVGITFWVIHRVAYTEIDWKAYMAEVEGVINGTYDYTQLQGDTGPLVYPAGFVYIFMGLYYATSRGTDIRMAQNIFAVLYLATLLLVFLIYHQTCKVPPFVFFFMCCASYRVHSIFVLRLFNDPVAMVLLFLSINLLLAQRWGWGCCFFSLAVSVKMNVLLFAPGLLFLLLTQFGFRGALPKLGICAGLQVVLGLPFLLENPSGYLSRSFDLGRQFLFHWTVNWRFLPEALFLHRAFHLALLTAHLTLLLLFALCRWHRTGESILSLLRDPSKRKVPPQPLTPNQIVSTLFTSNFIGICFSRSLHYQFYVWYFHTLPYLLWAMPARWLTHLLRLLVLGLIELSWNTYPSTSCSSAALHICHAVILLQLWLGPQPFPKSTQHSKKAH
UniProt Q7Z591: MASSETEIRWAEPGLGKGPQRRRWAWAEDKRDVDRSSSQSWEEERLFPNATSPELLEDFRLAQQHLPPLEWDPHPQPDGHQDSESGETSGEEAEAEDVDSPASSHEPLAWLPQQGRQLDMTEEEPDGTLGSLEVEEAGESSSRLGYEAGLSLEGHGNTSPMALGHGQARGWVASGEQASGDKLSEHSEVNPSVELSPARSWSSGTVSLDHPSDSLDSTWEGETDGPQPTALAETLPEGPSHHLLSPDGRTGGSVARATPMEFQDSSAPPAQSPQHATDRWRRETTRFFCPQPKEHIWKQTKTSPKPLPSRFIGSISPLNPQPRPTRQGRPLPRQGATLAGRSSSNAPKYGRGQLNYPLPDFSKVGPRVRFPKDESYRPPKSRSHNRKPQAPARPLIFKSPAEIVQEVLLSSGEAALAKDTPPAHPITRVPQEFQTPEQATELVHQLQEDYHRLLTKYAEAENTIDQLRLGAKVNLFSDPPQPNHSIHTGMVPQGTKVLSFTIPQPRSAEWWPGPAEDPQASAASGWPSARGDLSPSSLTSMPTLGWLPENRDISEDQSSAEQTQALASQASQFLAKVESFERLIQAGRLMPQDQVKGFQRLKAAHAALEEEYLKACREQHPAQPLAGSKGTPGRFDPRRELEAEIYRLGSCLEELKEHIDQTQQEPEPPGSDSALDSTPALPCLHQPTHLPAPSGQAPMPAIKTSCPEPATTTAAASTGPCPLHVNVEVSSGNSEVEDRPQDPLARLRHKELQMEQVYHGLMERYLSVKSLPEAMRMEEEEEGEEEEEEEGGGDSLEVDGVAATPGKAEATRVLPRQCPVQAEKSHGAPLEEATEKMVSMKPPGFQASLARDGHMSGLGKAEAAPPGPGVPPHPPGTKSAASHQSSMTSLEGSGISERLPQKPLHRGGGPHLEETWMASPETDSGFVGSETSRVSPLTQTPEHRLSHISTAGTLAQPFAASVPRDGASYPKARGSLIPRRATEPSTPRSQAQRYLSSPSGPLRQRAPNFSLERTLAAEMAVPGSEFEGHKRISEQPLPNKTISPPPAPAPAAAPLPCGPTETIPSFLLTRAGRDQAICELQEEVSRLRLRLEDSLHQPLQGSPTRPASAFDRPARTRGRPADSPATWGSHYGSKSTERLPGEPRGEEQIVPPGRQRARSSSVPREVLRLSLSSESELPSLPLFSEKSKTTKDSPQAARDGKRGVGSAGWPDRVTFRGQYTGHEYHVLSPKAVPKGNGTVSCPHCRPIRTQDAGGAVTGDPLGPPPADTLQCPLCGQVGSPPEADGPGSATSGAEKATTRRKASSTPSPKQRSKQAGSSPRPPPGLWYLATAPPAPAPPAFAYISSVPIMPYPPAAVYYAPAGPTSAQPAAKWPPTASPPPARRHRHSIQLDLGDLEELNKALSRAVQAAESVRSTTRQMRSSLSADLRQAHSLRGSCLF
UniProt Q6NS38: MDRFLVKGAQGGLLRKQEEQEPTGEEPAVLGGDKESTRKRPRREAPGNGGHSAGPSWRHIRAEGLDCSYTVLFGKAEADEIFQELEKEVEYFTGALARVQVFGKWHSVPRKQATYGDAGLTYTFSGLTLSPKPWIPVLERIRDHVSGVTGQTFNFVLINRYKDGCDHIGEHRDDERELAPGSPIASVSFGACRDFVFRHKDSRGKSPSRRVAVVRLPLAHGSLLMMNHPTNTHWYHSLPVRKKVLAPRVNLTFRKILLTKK
UniProt O43707, whole entry: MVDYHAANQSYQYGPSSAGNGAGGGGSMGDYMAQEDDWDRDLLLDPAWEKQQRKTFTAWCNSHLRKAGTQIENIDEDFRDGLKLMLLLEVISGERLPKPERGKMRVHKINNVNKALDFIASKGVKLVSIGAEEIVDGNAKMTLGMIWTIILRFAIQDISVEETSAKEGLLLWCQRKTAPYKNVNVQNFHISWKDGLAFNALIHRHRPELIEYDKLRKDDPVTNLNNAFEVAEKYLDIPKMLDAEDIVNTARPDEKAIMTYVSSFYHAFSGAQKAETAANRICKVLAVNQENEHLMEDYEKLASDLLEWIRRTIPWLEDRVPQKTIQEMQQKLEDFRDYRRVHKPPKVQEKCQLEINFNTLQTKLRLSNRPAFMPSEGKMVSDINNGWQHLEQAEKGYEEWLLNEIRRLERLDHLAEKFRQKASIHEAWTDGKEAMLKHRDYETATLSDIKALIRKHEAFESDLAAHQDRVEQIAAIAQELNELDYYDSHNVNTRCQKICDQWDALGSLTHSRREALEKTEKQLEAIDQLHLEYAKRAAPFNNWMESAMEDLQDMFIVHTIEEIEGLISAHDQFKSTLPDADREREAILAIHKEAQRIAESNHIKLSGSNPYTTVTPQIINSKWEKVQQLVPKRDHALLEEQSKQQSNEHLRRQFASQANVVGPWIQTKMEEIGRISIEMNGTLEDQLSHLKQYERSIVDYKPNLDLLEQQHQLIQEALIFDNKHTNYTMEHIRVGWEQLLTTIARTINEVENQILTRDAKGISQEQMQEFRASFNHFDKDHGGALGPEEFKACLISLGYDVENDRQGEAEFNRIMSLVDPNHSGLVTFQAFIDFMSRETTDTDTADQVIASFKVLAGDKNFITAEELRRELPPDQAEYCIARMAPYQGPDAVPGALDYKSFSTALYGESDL
UniProt Q15052: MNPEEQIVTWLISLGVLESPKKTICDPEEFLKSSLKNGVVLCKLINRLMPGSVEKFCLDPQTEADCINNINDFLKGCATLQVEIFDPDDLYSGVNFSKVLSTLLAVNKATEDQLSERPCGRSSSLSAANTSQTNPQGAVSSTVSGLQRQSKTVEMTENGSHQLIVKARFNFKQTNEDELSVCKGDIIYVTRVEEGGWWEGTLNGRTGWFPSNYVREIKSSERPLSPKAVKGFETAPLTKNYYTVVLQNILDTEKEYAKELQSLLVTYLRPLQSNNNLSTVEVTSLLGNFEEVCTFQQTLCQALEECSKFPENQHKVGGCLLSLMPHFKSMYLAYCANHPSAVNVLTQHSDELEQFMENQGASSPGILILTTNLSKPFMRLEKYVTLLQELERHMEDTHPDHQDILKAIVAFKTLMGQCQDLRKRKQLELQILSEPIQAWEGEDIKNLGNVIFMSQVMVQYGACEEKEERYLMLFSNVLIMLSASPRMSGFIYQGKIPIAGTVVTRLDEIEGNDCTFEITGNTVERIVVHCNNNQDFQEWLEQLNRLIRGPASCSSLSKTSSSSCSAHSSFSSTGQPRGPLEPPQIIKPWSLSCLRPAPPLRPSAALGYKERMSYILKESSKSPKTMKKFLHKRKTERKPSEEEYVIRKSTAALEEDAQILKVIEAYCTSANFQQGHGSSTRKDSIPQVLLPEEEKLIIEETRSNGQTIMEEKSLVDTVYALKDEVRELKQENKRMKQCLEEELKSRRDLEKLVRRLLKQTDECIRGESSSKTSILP
UniProt Q9UJX4, whole entry: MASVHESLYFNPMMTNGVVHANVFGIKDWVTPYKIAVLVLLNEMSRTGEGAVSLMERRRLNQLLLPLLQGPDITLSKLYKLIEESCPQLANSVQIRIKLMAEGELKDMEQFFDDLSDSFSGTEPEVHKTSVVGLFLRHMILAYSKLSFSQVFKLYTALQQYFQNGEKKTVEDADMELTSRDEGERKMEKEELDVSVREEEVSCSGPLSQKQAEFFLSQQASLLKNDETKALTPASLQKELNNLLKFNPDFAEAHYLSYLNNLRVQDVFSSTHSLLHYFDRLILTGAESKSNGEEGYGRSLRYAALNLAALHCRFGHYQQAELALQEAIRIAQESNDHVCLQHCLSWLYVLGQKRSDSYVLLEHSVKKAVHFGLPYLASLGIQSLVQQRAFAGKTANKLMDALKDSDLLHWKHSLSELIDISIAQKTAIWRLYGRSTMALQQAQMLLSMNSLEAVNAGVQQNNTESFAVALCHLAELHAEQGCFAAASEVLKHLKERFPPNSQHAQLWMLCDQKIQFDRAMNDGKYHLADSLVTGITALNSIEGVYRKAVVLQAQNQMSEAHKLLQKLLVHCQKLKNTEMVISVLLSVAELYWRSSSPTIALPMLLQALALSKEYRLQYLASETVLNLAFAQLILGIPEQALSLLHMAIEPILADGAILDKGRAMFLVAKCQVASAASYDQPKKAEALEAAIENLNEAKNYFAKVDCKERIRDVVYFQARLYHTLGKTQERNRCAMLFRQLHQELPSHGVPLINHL
UniProt Q7Z6I6: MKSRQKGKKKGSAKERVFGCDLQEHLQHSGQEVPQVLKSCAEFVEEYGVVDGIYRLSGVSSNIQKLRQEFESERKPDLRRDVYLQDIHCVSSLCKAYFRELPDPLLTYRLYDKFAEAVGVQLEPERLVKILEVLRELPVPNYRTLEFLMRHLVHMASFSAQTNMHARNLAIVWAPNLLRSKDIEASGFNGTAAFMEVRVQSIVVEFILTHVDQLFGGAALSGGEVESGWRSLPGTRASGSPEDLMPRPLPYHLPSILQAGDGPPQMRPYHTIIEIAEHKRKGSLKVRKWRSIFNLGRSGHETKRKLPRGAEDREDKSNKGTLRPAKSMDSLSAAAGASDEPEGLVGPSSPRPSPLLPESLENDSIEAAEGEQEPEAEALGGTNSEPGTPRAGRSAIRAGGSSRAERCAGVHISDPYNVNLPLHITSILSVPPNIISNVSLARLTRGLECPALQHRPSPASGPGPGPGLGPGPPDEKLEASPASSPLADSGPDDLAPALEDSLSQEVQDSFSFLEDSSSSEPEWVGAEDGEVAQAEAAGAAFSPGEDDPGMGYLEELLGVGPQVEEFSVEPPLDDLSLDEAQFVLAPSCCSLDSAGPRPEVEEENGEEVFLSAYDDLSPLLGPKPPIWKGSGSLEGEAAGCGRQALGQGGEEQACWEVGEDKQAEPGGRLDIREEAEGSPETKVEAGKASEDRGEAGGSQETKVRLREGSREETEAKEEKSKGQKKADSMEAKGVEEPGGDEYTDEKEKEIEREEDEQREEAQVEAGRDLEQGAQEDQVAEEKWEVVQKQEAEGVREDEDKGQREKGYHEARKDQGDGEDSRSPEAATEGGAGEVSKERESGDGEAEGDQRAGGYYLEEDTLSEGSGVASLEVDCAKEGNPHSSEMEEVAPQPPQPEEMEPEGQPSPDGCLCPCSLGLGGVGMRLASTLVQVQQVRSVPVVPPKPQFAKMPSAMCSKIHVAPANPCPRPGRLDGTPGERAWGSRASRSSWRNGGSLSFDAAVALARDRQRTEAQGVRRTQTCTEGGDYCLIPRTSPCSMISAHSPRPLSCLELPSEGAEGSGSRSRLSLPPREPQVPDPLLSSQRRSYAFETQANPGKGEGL
UniProt Q96Q45: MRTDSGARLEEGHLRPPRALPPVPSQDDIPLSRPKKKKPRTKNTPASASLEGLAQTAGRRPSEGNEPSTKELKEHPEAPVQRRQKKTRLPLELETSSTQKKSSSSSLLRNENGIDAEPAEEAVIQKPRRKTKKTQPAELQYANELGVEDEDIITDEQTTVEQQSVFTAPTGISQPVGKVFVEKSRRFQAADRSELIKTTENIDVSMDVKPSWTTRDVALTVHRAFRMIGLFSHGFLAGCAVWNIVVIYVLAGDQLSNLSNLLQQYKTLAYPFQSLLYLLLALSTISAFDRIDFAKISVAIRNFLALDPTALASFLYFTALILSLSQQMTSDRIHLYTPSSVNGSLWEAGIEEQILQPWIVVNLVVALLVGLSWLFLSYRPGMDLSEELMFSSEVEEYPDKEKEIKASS
UniProt P58335, whole entry: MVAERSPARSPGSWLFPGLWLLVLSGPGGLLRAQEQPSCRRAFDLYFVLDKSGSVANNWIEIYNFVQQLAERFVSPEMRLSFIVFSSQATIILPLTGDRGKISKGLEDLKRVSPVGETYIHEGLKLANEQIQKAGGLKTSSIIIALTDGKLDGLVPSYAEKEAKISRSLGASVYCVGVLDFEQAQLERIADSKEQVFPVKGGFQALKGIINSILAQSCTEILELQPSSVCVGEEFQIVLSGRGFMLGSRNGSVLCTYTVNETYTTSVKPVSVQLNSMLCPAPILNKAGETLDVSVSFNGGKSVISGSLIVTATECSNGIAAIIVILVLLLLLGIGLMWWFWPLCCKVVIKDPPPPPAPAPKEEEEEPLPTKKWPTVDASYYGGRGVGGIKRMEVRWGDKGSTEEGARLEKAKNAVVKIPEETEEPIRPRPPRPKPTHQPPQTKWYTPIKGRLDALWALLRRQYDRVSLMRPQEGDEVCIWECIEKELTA

compound: COc1ccc(Cn2ccc3ccc(C(=O)NO)cc32)cc1; assay: dose-dependent thermal stabilisation call (2D-TPP, DLPTP, 10% FDR) (binary (1 = stabilised)); higher = stabilised by the compound; conditions: system: HL-60 intact cells; concentration range 0.04-10 µM

Target	dose-dependent thermal stabilisation call
ACY1 (UniProt Q03154)	inactive: 0
ALG3 (UniProt Q92685)	inactive: 0
AKNA (UniProt Q7Z591)	inactive: 0
AK3L1	inactive: 0
ALKBH2 (UniProt Q6NS38)	inactive: 0
ARHGAP15 (UniProt Q53QZ3)	inactive: 0
ADD2 (UniProt P35612)	inactive: 0
ACTN4 (UniProt O43707)	inactive: 0
ARHGEF6 (UniProt Q15052)	inactive: 0
ANAPC1 (UniProt Q9H1A4)	inactive: 0
ACSL1 (UniProt P33121)	inactive: 0
ANAPC5 (UniProt Q9UJX4)	inactive: 0
ARHGAP30 (UniProt Q7Z6I6)	inactive: 0
AKAP13 (UniProt Q12802)	inactive: 0
ARL13B (UniProt Q3SXY8)	inactive: 0
AGPAT1 (UniProt Q99943)	inactive: 0
AGPS (UniProt O00116)	inactive: 0
ALG12 (UniProt Q9BV10)	inactive: 0
ADPGK (UniProt Q9BRR6)	inactive: 0
ALS2CR4 (UniProt Q96Q45)	inactive: 0
ANKRD52 (UniProt Q8NB46)	inactive: 0
ANTXR2 (UniProt P58335)	inactive: 0
ARAP1 (UniProt Q96P48)	inactive: 0
APEH (UniProt P13798)	inactive: 0
ARL1 (UniProt P40616)	inactive: 0
ARHGAP1 (UniProt Q07960)	inactive: 0
ALDH5A1 (UniProt P51649)	active: 1

In a second layout: entries from further up.

| Target | dose-dependent thermal stabilisation call |
| --- | --- |
| ACTN4 (UniProt O43707) | inactive: 0 |
| ARHGEF6 (UniProt Q15052) | inactive: 0 |
